This passage reports binding results from patent US7018846 (SCIENCE AND TECHNOLOGY CORPORATION UNM, dated 2006).

The chains behind the UniProt entries cited, without tags or fusion partners. Where a name states a change or a piece, a line headed by the entry shows the natural chain unless it says otherwise. A line that says so, or that is headed by a name, gives the form on record, which may keep a tag or linker.
C-terminally His-tagged N-formyl peptide receptor (P21462, form named): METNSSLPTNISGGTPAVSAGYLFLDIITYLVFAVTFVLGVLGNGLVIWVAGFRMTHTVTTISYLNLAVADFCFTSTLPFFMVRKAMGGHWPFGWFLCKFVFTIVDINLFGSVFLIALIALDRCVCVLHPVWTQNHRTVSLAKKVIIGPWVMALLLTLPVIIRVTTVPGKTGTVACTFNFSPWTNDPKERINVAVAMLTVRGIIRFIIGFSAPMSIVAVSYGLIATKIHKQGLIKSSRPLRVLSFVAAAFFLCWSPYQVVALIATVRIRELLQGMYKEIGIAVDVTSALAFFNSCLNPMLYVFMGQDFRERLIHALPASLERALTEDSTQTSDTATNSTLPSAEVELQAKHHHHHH

These are yes or no findings as the source states them, for the method shown. Some binding calls cover weakened binding; strength is not graded here.

In test [1] the target is C-terminally His-tagged N-formyl peptide receptor (UniProt P21462). The test can be described thus: spectrofluorometric competition with 1 nM fMLFK-FITC.
For test [2] the target is unchanged. The experiment in a line: flow cytometry competition with 10 nM fMLFK-FITC on C-His FPR silica particles; peptide at 10^-5 M. For orientation: Flow cytometry measures light scatter and fluorescence of single cells or particles in a stream.

For FLFLF (N-terminal t-boc group) [tboc-phe-leu-phe-leu-phe], the binding entry in test [1] and in test [2] was “binds” throughout.
